Here are results for 3 substances from article PMC10409759.

The chains behind the UniProt entries cited, without tags or fusion partners.
UniProt O75376: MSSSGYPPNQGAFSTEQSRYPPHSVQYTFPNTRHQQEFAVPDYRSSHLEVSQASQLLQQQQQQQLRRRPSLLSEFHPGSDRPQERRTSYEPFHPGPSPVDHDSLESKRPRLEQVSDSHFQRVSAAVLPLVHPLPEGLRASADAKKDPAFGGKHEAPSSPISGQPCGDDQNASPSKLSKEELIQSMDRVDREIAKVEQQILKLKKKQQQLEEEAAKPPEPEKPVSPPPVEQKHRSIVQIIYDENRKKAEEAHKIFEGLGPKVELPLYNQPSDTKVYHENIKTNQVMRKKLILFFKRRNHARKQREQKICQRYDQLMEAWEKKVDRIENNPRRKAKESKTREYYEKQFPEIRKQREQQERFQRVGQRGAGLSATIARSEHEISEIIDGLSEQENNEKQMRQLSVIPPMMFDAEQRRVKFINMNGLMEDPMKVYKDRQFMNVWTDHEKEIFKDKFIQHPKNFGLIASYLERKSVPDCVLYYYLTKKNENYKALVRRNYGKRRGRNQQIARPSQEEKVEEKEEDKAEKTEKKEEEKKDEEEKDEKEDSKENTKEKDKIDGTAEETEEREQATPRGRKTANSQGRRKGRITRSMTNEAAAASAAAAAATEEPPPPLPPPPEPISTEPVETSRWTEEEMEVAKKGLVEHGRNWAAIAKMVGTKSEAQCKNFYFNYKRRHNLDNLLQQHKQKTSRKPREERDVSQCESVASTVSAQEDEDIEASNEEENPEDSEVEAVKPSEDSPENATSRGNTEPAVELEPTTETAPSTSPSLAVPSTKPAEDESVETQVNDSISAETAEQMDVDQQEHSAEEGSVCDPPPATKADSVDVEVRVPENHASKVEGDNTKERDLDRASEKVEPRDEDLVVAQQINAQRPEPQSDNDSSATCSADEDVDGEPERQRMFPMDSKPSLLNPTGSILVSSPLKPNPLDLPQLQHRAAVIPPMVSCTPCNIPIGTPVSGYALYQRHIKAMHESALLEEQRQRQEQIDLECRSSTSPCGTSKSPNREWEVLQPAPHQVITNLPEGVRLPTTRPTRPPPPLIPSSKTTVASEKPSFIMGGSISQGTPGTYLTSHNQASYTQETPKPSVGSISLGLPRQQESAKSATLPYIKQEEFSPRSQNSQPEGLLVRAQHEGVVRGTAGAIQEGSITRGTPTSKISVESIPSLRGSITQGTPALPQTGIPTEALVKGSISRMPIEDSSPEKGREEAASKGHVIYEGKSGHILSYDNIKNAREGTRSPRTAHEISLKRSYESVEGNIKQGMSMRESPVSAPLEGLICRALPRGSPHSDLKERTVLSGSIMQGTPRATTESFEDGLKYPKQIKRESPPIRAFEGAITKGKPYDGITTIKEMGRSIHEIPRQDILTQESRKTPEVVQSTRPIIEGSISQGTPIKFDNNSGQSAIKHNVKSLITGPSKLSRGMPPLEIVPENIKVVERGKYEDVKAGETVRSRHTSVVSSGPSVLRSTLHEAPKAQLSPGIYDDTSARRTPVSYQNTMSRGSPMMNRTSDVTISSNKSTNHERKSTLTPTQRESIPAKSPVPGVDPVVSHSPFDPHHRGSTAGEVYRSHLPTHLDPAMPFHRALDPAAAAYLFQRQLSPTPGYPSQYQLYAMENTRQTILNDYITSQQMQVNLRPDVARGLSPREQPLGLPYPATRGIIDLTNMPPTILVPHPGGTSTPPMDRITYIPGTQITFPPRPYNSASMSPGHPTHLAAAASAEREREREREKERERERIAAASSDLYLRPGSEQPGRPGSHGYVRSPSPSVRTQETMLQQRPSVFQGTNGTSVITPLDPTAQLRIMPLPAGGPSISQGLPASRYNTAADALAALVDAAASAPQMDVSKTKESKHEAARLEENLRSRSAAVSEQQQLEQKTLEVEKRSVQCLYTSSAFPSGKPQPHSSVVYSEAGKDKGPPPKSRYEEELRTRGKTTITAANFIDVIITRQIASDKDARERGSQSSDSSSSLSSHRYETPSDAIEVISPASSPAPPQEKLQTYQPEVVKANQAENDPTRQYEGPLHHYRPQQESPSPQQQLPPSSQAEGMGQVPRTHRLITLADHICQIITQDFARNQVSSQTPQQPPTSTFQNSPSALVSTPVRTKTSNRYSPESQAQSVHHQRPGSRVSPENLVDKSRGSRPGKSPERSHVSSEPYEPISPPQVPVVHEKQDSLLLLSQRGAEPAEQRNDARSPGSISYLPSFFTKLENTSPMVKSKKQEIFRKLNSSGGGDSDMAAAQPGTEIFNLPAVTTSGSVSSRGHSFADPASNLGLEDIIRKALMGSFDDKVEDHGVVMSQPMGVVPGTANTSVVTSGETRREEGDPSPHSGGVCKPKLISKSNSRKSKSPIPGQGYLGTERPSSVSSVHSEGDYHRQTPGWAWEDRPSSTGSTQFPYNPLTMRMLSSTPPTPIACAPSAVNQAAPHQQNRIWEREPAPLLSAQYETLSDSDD
UniProt Q9UJU2: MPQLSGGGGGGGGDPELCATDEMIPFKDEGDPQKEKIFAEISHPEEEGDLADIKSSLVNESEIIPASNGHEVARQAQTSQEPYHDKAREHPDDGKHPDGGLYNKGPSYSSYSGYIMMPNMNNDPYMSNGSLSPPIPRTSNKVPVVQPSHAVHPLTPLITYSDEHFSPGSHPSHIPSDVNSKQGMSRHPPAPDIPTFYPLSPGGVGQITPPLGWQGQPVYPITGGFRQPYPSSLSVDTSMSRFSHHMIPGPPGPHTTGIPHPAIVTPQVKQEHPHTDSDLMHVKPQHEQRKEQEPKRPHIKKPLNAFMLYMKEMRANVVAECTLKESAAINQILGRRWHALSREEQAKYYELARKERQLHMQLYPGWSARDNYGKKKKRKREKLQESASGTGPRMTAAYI

No constants are given. Whether binding was seen depends on the method and setting. Binding seen in cells or lysates may run through a third protein. Some entries that bind do so weakly or less than the wild type. For some of these results: Where a sequence is shown, tags or fusion partners need not be part of it.

One experiment has as its target T1, Flag-tagged KDM4A (UniProt O75164).
T1 sequence: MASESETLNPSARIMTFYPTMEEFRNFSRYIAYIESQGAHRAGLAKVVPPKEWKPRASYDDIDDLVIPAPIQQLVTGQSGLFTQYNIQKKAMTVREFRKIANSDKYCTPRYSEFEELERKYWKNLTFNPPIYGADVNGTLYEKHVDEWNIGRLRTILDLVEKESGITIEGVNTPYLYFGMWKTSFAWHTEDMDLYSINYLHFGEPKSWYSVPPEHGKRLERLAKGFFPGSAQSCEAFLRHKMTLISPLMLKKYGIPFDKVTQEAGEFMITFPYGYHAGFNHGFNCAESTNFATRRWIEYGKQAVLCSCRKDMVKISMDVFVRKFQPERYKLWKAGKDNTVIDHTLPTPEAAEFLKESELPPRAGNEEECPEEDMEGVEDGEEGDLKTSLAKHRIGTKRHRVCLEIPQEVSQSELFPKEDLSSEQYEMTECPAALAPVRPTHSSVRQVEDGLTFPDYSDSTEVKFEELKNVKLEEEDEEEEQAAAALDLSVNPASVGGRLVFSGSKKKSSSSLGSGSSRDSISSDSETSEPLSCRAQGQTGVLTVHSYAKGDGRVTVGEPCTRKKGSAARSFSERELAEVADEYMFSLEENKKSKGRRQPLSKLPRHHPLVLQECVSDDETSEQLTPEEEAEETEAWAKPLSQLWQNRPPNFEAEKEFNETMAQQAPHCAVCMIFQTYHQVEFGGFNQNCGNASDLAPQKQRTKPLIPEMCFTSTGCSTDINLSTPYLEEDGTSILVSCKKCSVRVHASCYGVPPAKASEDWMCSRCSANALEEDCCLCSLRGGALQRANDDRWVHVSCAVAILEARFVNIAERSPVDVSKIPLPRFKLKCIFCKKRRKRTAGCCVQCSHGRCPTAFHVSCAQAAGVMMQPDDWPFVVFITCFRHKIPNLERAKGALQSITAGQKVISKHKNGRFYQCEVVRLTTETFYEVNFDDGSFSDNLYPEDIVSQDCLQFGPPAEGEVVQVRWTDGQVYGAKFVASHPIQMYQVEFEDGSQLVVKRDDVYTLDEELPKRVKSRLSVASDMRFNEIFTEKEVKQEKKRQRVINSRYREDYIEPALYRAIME
Kind of experiment: co-IP; Flag- and EGFP-tagged proteins overexpressed together in HEK293T; whole-cell lysates; IP with antibodies against Flag and blot against EGFP (Fig. 2E, 2F); IgG or pCMV6 plasmid as negative control.

For experiment [1], the target named is T2, Lysine-specific demethylase 4A (KDM4A), endogenous (human (endogenous in CAL-27 and SCC-9)) (UniProt O75164).
T2 sequence: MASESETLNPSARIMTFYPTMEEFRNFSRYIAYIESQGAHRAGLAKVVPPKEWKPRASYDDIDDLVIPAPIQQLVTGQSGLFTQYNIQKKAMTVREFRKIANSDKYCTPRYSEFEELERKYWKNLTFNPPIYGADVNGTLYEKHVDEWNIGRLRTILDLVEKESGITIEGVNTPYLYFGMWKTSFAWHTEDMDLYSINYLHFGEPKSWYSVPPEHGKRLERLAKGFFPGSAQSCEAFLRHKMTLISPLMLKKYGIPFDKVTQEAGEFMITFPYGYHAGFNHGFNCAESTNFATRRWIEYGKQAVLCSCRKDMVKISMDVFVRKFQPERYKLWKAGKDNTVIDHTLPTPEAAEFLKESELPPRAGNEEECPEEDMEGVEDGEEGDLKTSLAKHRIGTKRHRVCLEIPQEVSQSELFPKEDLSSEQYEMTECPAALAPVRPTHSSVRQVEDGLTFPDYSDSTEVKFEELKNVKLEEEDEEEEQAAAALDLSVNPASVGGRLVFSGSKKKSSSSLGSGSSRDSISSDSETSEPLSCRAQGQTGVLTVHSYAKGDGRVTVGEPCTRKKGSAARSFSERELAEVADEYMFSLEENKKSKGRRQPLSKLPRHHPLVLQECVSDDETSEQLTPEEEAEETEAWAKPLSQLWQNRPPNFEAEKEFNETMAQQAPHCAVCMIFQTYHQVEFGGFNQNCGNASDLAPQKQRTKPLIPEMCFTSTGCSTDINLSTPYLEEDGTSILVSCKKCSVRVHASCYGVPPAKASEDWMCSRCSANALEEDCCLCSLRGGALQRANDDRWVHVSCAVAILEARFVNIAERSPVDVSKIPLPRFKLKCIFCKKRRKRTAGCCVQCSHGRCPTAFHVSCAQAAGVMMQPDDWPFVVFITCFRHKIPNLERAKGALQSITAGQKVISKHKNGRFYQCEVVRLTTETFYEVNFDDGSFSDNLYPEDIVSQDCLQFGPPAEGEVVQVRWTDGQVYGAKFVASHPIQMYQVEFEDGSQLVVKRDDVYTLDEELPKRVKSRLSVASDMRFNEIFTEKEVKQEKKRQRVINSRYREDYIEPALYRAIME
Briefly: co-IP; endogenous proteins; whole-cell lysates of CAL-27 and SCC-9; IP with antibodies against LEF1, KDM4A or N-CoR on Dynabeads Protein G, 4 °C; lysis buffer 50 mM Tris-HCl pH 7.4, 150 mM NaCl, 2 mM EDTA, 0.3% NP-40; western blot; IgG as negative control. On the technique in general: Immunoblotting shows a protein as a band on a membrane.

In experiment [2] the target is Nuclear receptor co-repressor (N-CoR), endogenous (human (endogenous in CAL-27 and SCC-9)) (UniProt O75376). The description is as above.
A further experiment has as its target T3, GST-fused KDM4A (UniProt O75164).
T3 sequence: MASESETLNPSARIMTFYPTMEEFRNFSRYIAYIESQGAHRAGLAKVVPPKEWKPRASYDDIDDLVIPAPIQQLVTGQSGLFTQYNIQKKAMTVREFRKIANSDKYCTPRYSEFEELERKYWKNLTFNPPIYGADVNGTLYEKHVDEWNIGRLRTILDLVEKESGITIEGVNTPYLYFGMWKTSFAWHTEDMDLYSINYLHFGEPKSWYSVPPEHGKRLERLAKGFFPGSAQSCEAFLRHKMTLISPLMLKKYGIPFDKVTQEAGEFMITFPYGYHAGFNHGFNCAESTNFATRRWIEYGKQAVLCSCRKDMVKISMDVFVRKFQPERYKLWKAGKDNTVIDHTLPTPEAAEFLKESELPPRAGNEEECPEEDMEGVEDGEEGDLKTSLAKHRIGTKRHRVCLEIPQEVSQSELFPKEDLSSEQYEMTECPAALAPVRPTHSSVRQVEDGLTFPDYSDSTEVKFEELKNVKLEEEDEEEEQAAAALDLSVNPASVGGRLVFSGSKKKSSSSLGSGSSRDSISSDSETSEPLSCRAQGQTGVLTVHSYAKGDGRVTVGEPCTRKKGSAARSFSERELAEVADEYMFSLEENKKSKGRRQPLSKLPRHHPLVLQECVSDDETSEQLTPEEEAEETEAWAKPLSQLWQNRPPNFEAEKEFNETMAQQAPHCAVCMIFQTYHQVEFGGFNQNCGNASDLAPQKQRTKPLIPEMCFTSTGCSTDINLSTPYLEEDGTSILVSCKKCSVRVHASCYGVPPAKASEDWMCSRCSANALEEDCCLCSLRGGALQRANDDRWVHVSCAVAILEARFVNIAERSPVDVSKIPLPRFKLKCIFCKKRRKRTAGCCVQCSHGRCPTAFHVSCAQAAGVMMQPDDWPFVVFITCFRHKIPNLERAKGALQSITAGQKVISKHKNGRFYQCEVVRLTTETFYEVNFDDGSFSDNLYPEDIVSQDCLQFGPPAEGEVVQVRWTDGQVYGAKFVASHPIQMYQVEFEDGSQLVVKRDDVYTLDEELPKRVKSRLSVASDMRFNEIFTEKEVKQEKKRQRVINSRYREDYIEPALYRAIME
Kind of experiment: pull-down; GST-fusion protein (~10 μg, from E. coli BL21 lysate; no purification before mixing is described) mixed with 3-10 μl in vitro transcription/translation product (rabbit reticulocyte lysate) in 0.8% BSA in PBS with protease inhibitor; glutathione-agarose beads, 4 °C, 2 h; western blot.

Regarding “EGFP-tagged LEF1 (from UniProt Q9UJU2 1-399)”, the binding result in the experiment with Flag-tagged KDM4A is reported as “binds”.
In the case of “Lymphoid enhancer-binding factor 1 (LEF1), endogenous (from UniProt Q9UJU2 1-399)”, the binding entry in experiment [1] and in experiment [2] was “binds” throughout.
For “in vitro-transcribed/translated LEF1 (from UniProt Q9UJU2 1-399)”, in the experiment with GST-fused KDM4A, the binding entry was “binds”.
